Record: PubChem BioAssay AID1259405 (NCATS, 2018)
Shown is a random part of about 50,000 reagents tested. About 4,000 of all reagents (8%) count as active. 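Mouse siRNA library applied to hamster cells; one well for each siRNA.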 The numbers tell different reagents against one gene apart.

Test: 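Mouse-designed siRNAs used to find CHO productivity engineering targets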 (primary screen)
Cell system: Chinese hamster CHO-K1 ovary cells with stable secreted eGFP expression
Knock-down reagent: single siRNA against mouse genes, 0.8 pmol siRNA per well (2 µl of 400 nM stock)
Time to read-out: 3 days
Read-out: 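Per-well intracellular GFP measured by laser scanning cytometry, plus viability from ATP luminescence, each relative to plate median of non-targeting control wells, in %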
Reading the numbers: GFP, % of control: higher = more GFP per well, higher productivity; viability (ATP), % of control: higher = more viable cells (more ATP)
Rule for the call: 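Called active when intracellular GFP, relative to negative control, is at or above 120%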

gene | reagent no. | GFP, % of control | viability (ATP), % of control | call
Wwc1 | 1 | 74.7 | 74.6 | inactive
Wwc1 | 2 | 90.5 | 76.5 | inactive
Wwc1 | 3 | 135 | 120 | active
Ccdc40 | 1 | 55.7 | 72.6 | inactive
Ccdc40 | 2 | 71.9 | 87 | inactive
Ccdc40 | 3 | 24.8 | 41.2 | inactive
Foxp1 | 1 | 65.3 | 82.5 | inactive
Foxp1 | 2 | 67.3 | 40.7 | inactive
Foxp1 | 3 | 81.3 | 93 | inactive
Tgif2 | 1 | 66.4 | 97.9 | inactive
Tgif2 | 2 | 42.5 | 63 | inactive
Tgif2 | 3 | 72.5 | 79.4 | inactive
Gpt2 | 1 | 61.2 | 45.6 | inactive
Gpt2 | 2 | 89 | 125 | inactive
Gpt2 | 3 | 70.5 | 101 | inactive
Fam131a | 1 | 68.1 | 97 | inactive
Fam131a | 2 | 54.9 | 53 | inactive
Fam131a | 3 | 66.3 | 75.6 | inactive
Ttc29 | 1 | 104 | 90 | inactive
Ttc29 | 2 | 47.3 | 40 | inactive
Ttc29 | 3 | 95 | 84.2 | inactive
Hs3st3b1 | 1 | 59.4 | 53 | inactive
Hs3st3b1 | 2 | 31.1 | 43.6 | inactive
Hs3st3b1 | 3 | 68.9 | 92.7 | inactive
Rheb | 1 | 157 | 85 | active
Rheb | 2 | 85.2 | 69.9 | inactive
Rheb | 3 | 92.1 | 69 | inactive
Or52e15 | 1 | 88 | 68.4 | inactive
Or52e15 | 2 | 54.4 | 48.3 | inactive
Or52e15 | 3 | 108 | 118 | inactive
F7 | 1 | 113 | 62.1 | inactive
F7 | 2 | 97.2 | 67.8 | inactive
F7 | 3 | 98.2 | 63.2 | inactive
Or1j17 | 1 | 60 | 67.3 | inactive
Or1j17 | 2 | 94.3 | 65.2 | inactive
Or1j17 | 3 | 45.4 | 69.1 | inactive
Pla2g4c | 1 | 79.9 | 76.4 | inactive
Pla2g4c | 2 | 101 | 95.8 | inactive
Pla2g4c | 3 | 61.9 | 100 | inactive
Eif4e2 | 1 | 88.9 | 117 | inactive
Eif4e2 | 2 | 104 | 96.6 | inactive
Eif4e2 | 3 | 72.8 | 63.7 | inactive
Ccn4 | 1 | 58.2 | 85.8 | inactive
Ccn4 | 2 | 115 | 55.3 | inactive
Ccn4 | 3 | 97.6 | 126 | inactive
Bcl2 | 1 | 77.8 | 53.1 | inactive
Bcl2 | 2 | 66 | 80.7 | inactive
Dcaf4 | 1 | 65.7 | 65.9 | inactive
Dcaf4 | 2 | 107 | 82.2 | inactive
Dcaf4 | 3 | 56.5 | 73.4 | inactive
Arpc4 | 1 | 76.9 | 57.7 | inactive
Arpc4 | 2 | 75.3 | 70.5 | inactive
Arpc4 | 3 | 96.6 | 49.9 | inactive
Ninl | 1 | 61.4 | 98.4 | inactive
Ninl | 2 | 85.3 | 69 | inactive

In a second layout: 4 of the entries above.
gene	reagent no.	GFP, % of control	viability (ATP), % of control	call
Pla2g4c	3	61.9	100	inactive
Eif4e2	1	88.9	117	inactive
Eif4e2	2	104	96.6	inactive
Eif4e2	3	72.8	63.7	inactive

The results go on:
gene | reagent no. | GFP, % of control | viability (ATP), % of control | call
Rcc1 | 1 | 107 | 81.1 | inactive
Rcc1 | 2 | 122 | 71.6 | active
Rcc1 | 3 | 36.7 | 43 | inactive
Prmt8 | 1 | 101 | 62.4 | inactive
Prmt8 | 2 | 90.2 | 80.3 | inactive
Prmt8 | 3 | 76.5 | 48.4 | inactive
Lemd2 | 1 | 56.1 | 78.5 | inactive
Lemd2 | 2 | 71.6 | 104 | inactive
Lemd2 | 3 | 57.4 | 82 | inactive
Or51i1 | 1 | 64.4 | 78.3 | inactive
Or51i1 | 2 | 84.9 | 34.1 | inactive
Or51i1 | 3 | 32.3 | 43.9 | inactive
Ighmbp2 | 1 | 150 | 106 | active
Ighmbp2 | 2 | 97.8 | 113 | inactive
Ighmbp2 | 3 | 37.9 | 34.7 | inactive
Igsf9 | 1 | 79 | 109 | inactive
Igsf9 | 2 | 93.2 | 79.6 | inactive
Igsf9 | 3 | 81.1 | 73.8 | inactive
Slc25a45 | 1 | 118 | 110 | inactive
Slc25a45 | 2 | 59.5 | 59.6 | inactive
Slc25a45 | 3 | 72.4 | 70.6 | inactive
Gsap | 1 | 47 | 55 | inactive
Gsap | 2 | 54.4 | 37.7 | inactive
Gsap | 3 | 74.6 | 92.7 | inactive
Rraga | 1 | 42.5 | 73.2 | inactive
Rraga | 2 | 74.7 | 82.6 | inactive
Rraga | 3 | 90.3 | 83 | inactive
Asb18 | 1 | 131 | 80.3 | active
Asb18 | 2 | 65.5 | 87.6 | inactive
Asb18 | 3 | 145 | 77.8 | active
